According to article PMC8754637:
No constants are given. Whether binding was seen depends on the method and setting. In cells and extracts the contact can be indirect. Some binding calls cover weakened binding; strength is not graded here. Where a sequence is shown, tags or fusion partners need not be part of it.

Chains of the proteins cited; added tags and fusions are not shown.
UniProt P36594: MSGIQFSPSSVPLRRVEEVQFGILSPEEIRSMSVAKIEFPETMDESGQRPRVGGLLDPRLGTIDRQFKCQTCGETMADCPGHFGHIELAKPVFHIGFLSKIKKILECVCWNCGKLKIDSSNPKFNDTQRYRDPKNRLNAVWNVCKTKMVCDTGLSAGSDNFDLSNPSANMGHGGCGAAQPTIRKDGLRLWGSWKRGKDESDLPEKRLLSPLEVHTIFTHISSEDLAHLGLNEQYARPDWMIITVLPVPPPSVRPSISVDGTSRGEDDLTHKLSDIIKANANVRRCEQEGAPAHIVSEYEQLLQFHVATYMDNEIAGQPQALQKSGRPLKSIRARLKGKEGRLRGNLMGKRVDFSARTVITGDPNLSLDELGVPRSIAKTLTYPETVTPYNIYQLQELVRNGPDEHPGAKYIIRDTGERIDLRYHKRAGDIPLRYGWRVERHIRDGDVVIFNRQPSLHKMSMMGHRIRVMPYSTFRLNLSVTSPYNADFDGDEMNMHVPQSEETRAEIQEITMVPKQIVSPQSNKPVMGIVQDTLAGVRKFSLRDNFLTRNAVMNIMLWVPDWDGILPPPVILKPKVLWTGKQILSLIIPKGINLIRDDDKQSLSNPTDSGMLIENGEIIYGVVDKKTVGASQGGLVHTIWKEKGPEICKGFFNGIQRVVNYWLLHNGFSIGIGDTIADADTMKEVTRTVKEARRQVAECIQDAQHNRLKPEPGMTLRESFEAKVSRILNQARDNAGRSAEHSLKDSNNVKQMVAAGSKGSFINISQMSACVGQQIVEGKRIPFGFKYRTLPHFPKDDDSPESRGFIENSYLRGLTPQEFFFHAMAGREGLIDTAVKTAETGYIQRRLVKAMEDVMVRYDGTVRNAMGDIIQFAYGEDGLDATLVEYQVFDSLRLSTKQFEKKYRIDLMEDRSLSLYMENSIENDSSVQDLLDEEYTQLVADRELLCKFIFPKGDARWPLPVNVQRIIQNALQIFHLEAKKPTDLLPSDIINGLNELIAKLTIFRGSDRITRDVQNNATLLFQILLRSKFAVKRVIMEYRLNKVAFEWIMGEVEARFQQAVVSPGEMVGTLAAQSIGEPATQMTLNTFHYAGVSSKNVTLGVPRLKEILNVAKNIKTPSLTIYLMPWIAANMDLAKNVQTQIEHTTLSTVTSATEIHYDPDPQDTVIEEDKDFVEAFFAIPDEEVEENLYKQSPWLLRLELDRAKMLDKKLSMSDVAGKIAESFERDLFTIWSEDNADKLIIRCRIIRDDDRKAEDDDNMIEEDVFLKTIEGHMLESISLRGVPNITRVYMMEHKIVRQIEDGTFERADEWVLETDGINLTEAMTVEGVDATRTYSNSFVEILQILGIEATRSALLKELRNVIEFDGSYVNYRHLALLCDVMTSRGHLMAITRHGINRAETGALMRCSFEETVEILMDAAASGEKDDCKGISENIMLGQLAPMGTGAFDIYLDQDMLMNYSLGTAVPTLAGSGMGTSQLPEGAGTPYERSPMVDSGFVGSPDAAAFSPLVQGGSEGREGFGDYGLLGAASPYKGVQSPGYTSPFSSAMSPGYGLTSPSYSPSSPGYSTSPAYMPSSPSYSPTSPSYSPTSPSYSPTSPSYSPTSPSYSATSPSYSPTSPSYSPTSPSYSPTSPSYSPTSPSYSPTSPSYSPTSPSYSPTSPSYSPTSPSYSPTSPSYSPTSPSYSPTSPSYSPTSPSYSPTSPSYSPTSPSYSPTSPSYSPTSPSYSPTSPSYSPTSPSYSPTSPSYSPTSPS

Columns and labels:
[1] = biological target: T1, Flag-tagged Upf1 (S. pombe) (UniProt Q09820); assay: co-IP; reverse experiment: Upf1-Flag held on anti-Flag antibody-coated Dynabeads from DNase-treated S. pombe lysate, same buffers, eluted with Flag peptide; read by western blotting
T1 sequence: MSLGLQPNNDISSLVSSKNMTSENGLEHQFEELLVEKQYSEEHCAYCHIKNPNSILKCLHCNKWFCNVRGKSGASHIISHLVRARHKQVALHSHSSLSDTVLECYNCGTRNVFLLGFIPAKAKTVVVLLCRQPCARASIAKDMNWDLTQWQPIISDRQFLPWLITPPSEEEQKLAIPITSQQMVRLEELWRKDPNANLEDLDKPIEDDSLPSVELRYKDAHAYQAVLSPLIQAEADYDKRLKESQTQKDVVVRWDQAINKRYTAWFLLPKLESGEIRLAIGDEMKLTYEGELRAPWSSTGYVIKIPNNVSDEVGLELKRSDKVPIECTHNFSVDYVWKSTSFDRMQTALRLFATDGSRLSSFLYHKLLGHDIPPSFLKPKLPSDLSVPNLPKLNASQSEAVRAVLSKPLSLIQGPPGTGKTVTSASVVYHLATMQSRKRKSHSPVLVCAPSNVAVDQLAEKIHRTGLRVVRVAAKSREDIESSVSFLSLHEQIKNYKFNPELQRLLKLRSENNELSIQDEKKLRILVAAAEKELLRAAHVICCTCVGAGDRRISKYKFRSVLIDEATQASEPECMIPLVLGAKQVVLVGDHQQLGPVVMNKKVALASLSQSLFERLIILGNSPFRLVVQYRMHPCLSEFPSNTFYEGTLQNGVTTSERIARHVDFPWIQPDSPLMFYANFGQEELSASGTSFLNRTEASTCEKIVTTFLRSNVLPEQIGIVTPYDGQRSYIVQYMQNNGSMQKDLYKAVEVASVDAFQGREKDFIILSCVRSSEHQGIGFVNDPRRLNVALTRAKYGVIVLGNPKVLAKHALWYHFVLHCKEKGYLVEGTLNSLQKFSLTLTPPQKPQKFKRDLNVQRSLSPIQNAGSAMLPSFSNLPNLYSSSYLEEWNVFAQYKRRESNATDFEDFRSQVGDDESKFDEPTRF

[2] = biological target: T2, Flag tagged Rpb3 subunit of Pol II (S. pombe) (UniProt P37382); assay: co-IP; Flag-Rpb3 held on anti-Flag antibody-coated Dynabeads from DNase-treated S. pombe lysate (HEPES 20 mM, KAc 110 mM, Triton X-100 0.5%, Tween 20 0.1%, RNase inhibitor), 1 h at 4°C, 6 washes, eluted with Flag peptide; read by silver-stained SDS-PAGE, mass spectrometry and western blotting; wild-type, upf1Δ and Upf1-HA strains
T2 sequence: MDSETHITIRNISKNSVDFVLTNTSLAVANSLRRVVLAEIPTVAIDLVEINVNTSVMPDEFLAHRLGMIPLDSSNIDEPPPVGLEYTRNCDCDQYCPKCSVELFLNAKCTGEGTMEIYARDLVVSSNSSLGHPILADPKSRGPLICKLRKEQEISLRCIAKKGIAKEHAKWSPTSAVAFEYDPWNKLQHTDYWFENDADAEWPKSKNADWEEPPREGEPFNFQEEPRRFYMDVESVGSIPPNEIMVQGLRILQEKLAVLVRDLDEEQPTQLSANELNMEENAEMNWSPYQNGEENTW

For “Rpb1, largest subunit of Pol II (from UniProt P36594 1-1752)”, the binding [1] was “no binding” and the binding [2] was “binds”.

B1: Upf1 tagged with HA (protein, UniProt Q09820 1-925)
chain: MSLGLQPNNDISSLVSSKNMTSENGLEHQFEELLVEKQYSEEHCAYCHIKNPNSILKCLHCNKWFCNVRGKSGASHIISHLVRARHKQVALHSHSSLSDTVLECYNCGTRNVFLLGFIPAKAKTVVVLLCRQPCARASIAKDMNWDLTQWQPIISDRQFLPWLITPPSEEEQKLAIPITSQQMVRLEELWRKDPNANLEDLDKPIEDDSLPSVELRYKDAHAYQAVLSPLIQAEADYDKRLKESQTQKDVVVRWDQAINKRYTAWFLLPKLESGEIRLAIGDEMKLTYEGELRAPWSSTGYVIKIPNNVSDEVGLELKRSDKVPIECTHNFSVDYVWKSTSFDRMQTALRLFATDGSRLSSFLYHKLLGHDIPPSFLKPKLPSDLSVPNLPKLNASQSEAVRAVLSKPLSLIQGPPGTGKTVTSASVVYHLATMQSRKRKSHSPVLVCAPSNVAVDQLAEKIHRTGLRVVRVAAKSREDIESSVSFLSLHEQIKNYKFNPELQRLLKLRSENNELSIQDEKKLRILVAAAEKELLRAAHVICCTCVGAGDRRISKYKFRSVLIDEATQASEPECMIPLVLGAKQVVLVGDHQQLGPVVMNKKVALASLSQSLFERLIILGNSPFRLVVQYRMHPCLSEFPSNTFYEGTLQNGVTTSERIARHVDFPWIQPDSPLMFYANFGQEELSASGTSFLNRTEASTCEKIVTTFLRSNVLPEQIGIVTPYDGQRSYIVQYMQNNGSMQKDLYKAVEVASVDAFQGREKDFIILSCVRSSEHQGIGFVNDPRRLNVALTRAKYGVIVLGNPKVLAKHALWYHFVLHCKEKGYLVEGTLNSLQKFSLTLTPPQKPQKFKRDLNVQRSLSPIQNAGSAMLPSFSNLPNLYSSSYLEEWNVFAQYKRRESNATDFEDFRSQVGDDESKFDEPTRF
B1 was tested, and the binding [2] was “no binding”.

B2: Upf1 (untagged, endogenous) (protein, UniProt Q09820 1-925)
chain: MSLGLQPNNDISSLVSSKNMTSENGLEHQFEELLVEKQYSEEHCAYCHIKNPNSILKCLHCNKWFCNVRGKSGASHIISHLVRARHKQVALHSHSSLSDTVLECYNCGTRNVFLLGFIPAKAKTVVVLLCRQPCARASIAKDMNWDLTQWQPIISDRQFLPWLITPPSEEEQKLAIPITSQQMVRLEELWRKDPNANLEDLDKPIEDDSLPSVELRYKDAHAYQAVLSPLIQAEADYDKRLKESQTQKDVVVRWDQAINKRYTAWFLLPKLESGEIRLAIGDEMKLTYEGELRAPWSSTGYVIKIPNNVSDEVGLELKRSDKVPIECTHNFSVDYVWKSTSFDRMQTALRLFATDGSRLSSFLYHKLLGHDIPPSFLKPKLPSDLSVPNLPKLNASQSEAVRAVLSKPLSLIQGPPGTGKTVTSASVVYHLATMQSRKRKSHSPVLVCAPSNVAVDQLAEKIHRTGLRVVRVAAKSREDIESSVSFLSLHEQIKNYKFNPELQRLLKLRSENNELSIQDEKKLRILVAAAEKELLRAAHVICCTCVGAGDRRISKYKFRSVLIDEATQASEPECMIPLVLGAKQVVLVGDHQQLGPVVMNKKVALASLSQSLFERLIILGNSPFRLVVQYRMHPCLSEFPSNTFYEGTLQNGVTTSERIARHVDFPWIQPDSPLMFYANFGQEELSASGTSFLNRTEASTCEKIVTTFLRSNVLPEQIGIVTPYDGQRSYIVQYMQNNGSMQKDLYKAVEVASVDAFQGREKDFIILSCVRSSEHQGIGFVNDPRRLNVALTRAKYGVIVLGNPKVLAKHALWYHFVLHCKEKGYLVEGTLNSLQKFSLTLTPPQKPQKFKRDLNVQRSLSPIQNAGSAMLPSFSNLPNLYSSSYLEEWNVFAQYKRRESNATDFEDFRSQVGDDESKFDEPTRF
B2 was tested, and the binding [2] was “no binding”.
